Source: paper PMC11903765, “ARR1 and AHP interactions in the multi-step phosphorelay system” (Frontiers in Plant Science, 2025)
No constants are given. Whether binding was seen depends on the method and setting. Where a sequence is shown, tags or fusion partners need not be part of it.

Biological target: T1, AHP1 (Arabidopsis histidine-containing phosphotransfer protein 1), full length (Arabidopsis thaliana), Q9ZNV9
T1 chain: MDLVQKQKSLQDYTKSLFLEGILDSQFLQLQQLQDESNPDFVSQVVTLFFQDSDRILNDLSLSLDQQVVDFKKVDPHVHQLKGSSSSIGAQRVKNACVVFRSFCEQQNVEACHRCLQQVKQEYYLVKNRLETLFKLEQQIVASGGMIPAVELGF
Assay: crystal structure; complex from mixing 1 ARR1 : 1.5 AHP1, purified by SEC; crystals from Morpheus G11, pH 8.5, 32.5 mg/mL; 2.9 Å; two complexes in the asymmetric unit; both purified
Details: remark: other sources report otherwise

B1: AHP1 (Arabidopsis histidine-containing phosphotransfer protein 1), full length (natural protein, Arabidopsis thaliana, UniProt Q9ZNV9 1-154, looked up)
chain: MDLVQKQKSLQDYTKSLFLEGILDSQFLQLQQLQDESNPDFVSQVVTLFFQDSDRILNDLSLSLDQQVVDFKKVDPHVHQLKGSSSSIGAQRVKNACVVFRSFCEQQNVEACHRCLQQVKQEYYLVKNRLETLFKLEQQIVASGGMIPAVELGF
notes: AHP1, Arabidopsis thaliana, UniProt Q9ZNV9, full-length protein cloned from A. thaliana cDNA into pMCSG53; Unphosphorylated; source: E. coli BL21 Gold, purified (Ni-NTA, TEV digestion, second Ni-NTA, SEC)
binding: no binding
